Measured values: the supplement of paper PMC12889115
The other results are listed elsewhere or left out. These are raw signals, not scaled to a control.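 Primary screen: polymyxin B was added at a level permeabilizing Salmonella outer membranes while sparing inner membranes. DMSO wells, both with and without polymyxin B, established maximum growth. Plate-to-plate variation meant each plate was ranked on its own, and the lowest-OD600 compounds were selected as hits.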

System: Salmonella enterica serovar Typhimurium SL1344
Test: bacterial growth OD600 after 18 h with compound and polymyxin B; higher = more bacterial growth (less inhibition)
Conditions: 50 µM, Mueller-Hinton broth

Row | Structure (SMILES) | bacterial growth OD600 (polymyxin B 0.75 µg/mL) | bacterial growth OD600 (polymyxin B 1 µg/mL)
1 | COCCO[C@H]1[C@H](NC(=O)C(C)C)c2ccccc2C12CCN(C(=O)c1ccc(F)cc1)CC2 | 0.814 | –
2 | COc1ccccc1C(=O)N[C@@H]1c2ccccc2C2(CCN(C(=O)c3cnc(C)cn3)CC2)[C@H]1OC | 0.899 | –
3 | CCOC(=O)CCNC(=O)c1ccc(OC)c(OC2CCN(C(C)=O)CC2)c1 | – | 1.06
4 | COCCN1C(=O)CC(CC(=O)N2CCC(Oc3ccccc3OC)CC2)(c2ccccc2F)C1=O (configuration not stated) | 0.787 | –
5 | Cc1cc(-c2ccnc(-n3ncc(C(=O)N4CCN(c5ccccc5O)CC4)c3C)n2)c(C)s1 | 0.015 | –
6 | CC(NC(=O)c1coc(COc2ccc(F)cc2Cl)n1)c1cnn(C)c1 (configuration not stated) | – | 0.942
7 | COC(=O)C(CCSC)NC(=O)CCC1(Cc2ccc(OC)cc2F)CCC(=O)N1 (configuration not stated) | 0.843 | –
8 | O=C(Nc1ccc(-n2cccn2)cc1)C1CCCN1C(=O)CCc1ccco1 (configuration not stated) | 0.828 | –
9 | CC(C)CN1CCC(C2CCN(C(=O)CCc3ccco3)C2)CC1 (configuration not stated) | 0.833 | –
10 | COc1cccc(CC(C2CCN(C(=O)C(C)c3ccccc3)CC2)N(C)C(=O)c2ccn(C)n2)c1 (configuration not stated) | 0.878 | –
11 | CC1CCN(c2ccc(C(=O)NCCC3CCCCN3C)cn2)CC1 (configuration not stated) | 0.758 | –
12 | COc1ccc(C(CC(=O)NCc2ccncc2)c2ccccc2)cc1 (configuration not stated) | – | 0.908
13 | CC1CN(Cc2cccnc2)Cc2cc(Cl)ccc2O1 (configuration not stated) | 0.841 | –
14 | CN(c1ncccc1CNC(=O)c1ccc2c(c1)OCO2)C1CCCCC1 | – | 0.02
15 | Cc1ccc(C)c(-n2cc(CN3CCOCC3)c(-c3ccccc3)n2)c1 | – | 0.799
16 | COc1ccc(C(=O)N2CCN(C(=O)Cn3nnnc3CN3CCCC3)CC2)cc1 | – | 0.914

Ordered by molecular weight (rising): 7 of the compounds above.
Row | Structure (SMILES) | bacterial growth OD600 (polymyxin B 0.75 µg/mL) | bacterial growth OD600 (polymyxin B 1 µg/mL)
15 | Cc1ccc(C)c(-n2cc(CN3CCOCC3)c(-c3ccccc3)n2)c1 | – | 0.799
8 | O=C(Nc1ccc(-n2cccn2)cc1)C1CCCN1C(=O)CCc1ccco1 (configuration not stated) | 0.828 | –
3 | CCOC(=O)CCNC(=O)c1ccc(OC)c(OC2CCN(C(C)=O)CC2)c1 | – | 1.06
1 | COCCO[C@H]1[C@H](NC(=O)C(C)C)c2ccccc2C12CCN(C(=O)c1ccc(F)cc1)CC2 | 0.814 | –
5 | Cc1cc(-c2ccnc(-n3ncc(C(=O)N4CCN(c5ccccc5O)CC4)c3C)n2)c(C)s1 | 0.015 | –
2 | COc1ccccc1C(=O)N[C@@H]1c2ccccc2C2(CCN(C(=O)c3cnc(C)cn3)CC2)[C@H]1OC | 0.899 | –
4 | COCCN1C(=O)CC(CC(=O)N2CCC(Oc3ccccc3OC)CC2)(c2ccccc2F)C1=O (configuration not stated) | 0.787 | –

(listing goes on)

Row | Structure (SMILES) | bacterial growth OD600 (polymyxin B 0.75 µg/mL) | bacterial growth OD600 (polymyxin B 1 µg/mL)
17 | OCC1(CCCc2ccccc2)CCN(Cc2c[nH]nc2-c2cccc(F)c2)CC1 | 0.829 | –
18 | O=C(c1coc(COc2ccc3c(c2)OCO3)n1)N1CCCCCCC1 | – | 0.653
19 | COC(=O)[C@@H](NC(=O)CCC1(Cc2ccc(F)cc2)CCC(=O)N1)c1ccccc1 (some centres not stated) | 0.804 | –
20 | COCc1ccc(C(=O)Nc2ccc(-c3nc(CNC(=O)c4cc(C)nc(C)n4)c(C)o3)cc2)o1 | 0.781 | –
21 | COc1cc(CN(C(=O)c2ccccc2C(F)(F)F)[C@H]2CCCCNC2=O)cc(OC)c1OCCc1ccsc1 | 0.745 | –
22 | COc1cc([C@@H]2C[C@H]3CN(C)C(=O)[C@]34CCCN24)ccc1F | 0.793 | –
23 | CCOC(=O)C1(Cc2ccccc2F)CCCN(C(=O)Cn2nc(C)cc2C)C1 (configuration not stated) | – | 0.962
24 | COc1cccc(CN2CCN(Cc3ccccc3F)CC2CCO)c1 (configuration not stated) | – | 0.797
25 | COC(=O)CN(C)C(=O)c1ccc(OC2CCN(C3CCCC3)CC2)c(OC)c1 | – | 0.954
26 | CCn1ccnc1CN(C)C(=O)c1cc(Cn2c(C)nc3ccccc32)[nH]n1 | – | 0.94
27 | CSc1ccc(C(=O)N2CCC(C(Cc3ccccc3F)N(C)C(=O)c3ccoc3C)CC2)cc1 (configuration not stated) | 0.003 | –
28 | CSc1nc(C(=O)N2CCc3[nH]nc(-c4ccccc4F)c3C2)cs1 | – | 0.826
29 | Cc1ccccc1CCC1CCCN(C(=O)C2CCOCC2)C1 (configuration not stated) | – | 0.856
30 | CN(CC1COc2ccccc2O1)c1ccc(-c2nc(C3CC3)no2)cn1 (configuration not stated) | – | 1.04
31 | O=C(NCCn1cccn1)c1cc(COc2ccccc2F)[nH]n1 | – | 0.903
32 | Cc1nc2ccccc2n1Cc1cc(C(=O)N(C)C(C)c2ccon2)n[nH]1 (configuration not stated) | – | 0.92
